Results published in patent US5580747A, “Non-radioactive enzyme assay” (Promega Corporation, priority 1994, dated 1996).
Part of at least one peptide drawing is inferred or uncertain, most often the ends. Residues, ends and D or L forms follow the SMILES beside them. *: point of attachment. Dansyl = CN(C)c1cccc2c(S(=O)(=O)*)cccc12

Molecular target: cAMP-dependent protein kinase (Homo sapiens, UniProt P17612)
Test: Radioactive kinase assay of peptide substrates (32P incorporation, P81 filter)
Format: biochemical
Procedure: Radioactive kinase assays were carried out as described in Walton et al., as modified and described here. Five μl Promega Peptide 1 (SEQ ID NO:1) were added to a reaction mixture containing 20mM Tris HCl (pH 7.4), 10 mM MgCl2, 4 micrograms (μg) of cAMP-dependent protein kinase (both catalytic and regulatory subunits), in the presence or absence of 2 micromolar (μM) cAMP, in a volume of 50 μl.
The reaction began with the addition of 10 μl of solution containing 0.15 mM [γ32 P] ATP (about 0.05 Ci/mmol) and 10 mM MgCl2. After a two minute incubation, the reaction was terminated by the addition of 30 μl of H3 PO4 to a final concentration of 0.5%. To measure incorporation of radiolabelled phosphate into the peptide substrate, half the reaction mixture was spotted onto a Whatmann P81 filter. The filters were washed four times in a solution containing 0.5% H3 PO4. Each wash lasted at least five minutes. After washing, the radioactivity present on the filters was measured in a scintillation counter.

CC(C)C[C@H](NS(=O)(=O)c1cccc2c(N(C)C)cccc12)C(=O)N[C@@H](CCCNC(=N)N)C(=O)N[C@@H](CCCNC(=N)N)C(=O)N[C@@H](C)C(=O)N[C@@H](CO)C(=O)N[C@H](C(=O)N[C@@H](C)C(=O)O)C(C)C [Promega Peptide 2, V^6 A^5 Dansyl Kemptide] (Dansyl-LRRASVA-OH)
CPM (+cAMP) (2 μM cAMP, 4 μg cAMP-dependent protein kinase, [γ32P]ATP, two minute incubation): 581,682 CPM | Stimulation (CPM +cAMP relative to no cAMP): 28 | CPM (no cAMP) (no cAMP, 4 μg cAMP-dependent protein kinase, [γ32P]ATP, two minute incubation): 21044 CPM
